Assay results as given in PubChem BioAssay AID504444 (National Center for Advancing Translational Sciences (NCATS), 2011).
Hit rate of the full screen: of about 360,000 compounds, about 7,500 (2.1%) were called active. This list was built around the results that the source calls inconclusive (neither active nor inactive); the mix of calls is not that of the screen. The call rests on the fitted dose curve; in most records, active means well fitted inhibition curve with a large enough effect; inconclusive means small, poorly fitted or top-dose-only effect, or effect the other way; inactive means flat fitted curve, though single readings scatter. Potencies beside an inconclusive call are fits to weak or partial responses and may not hold up.
On the % scale 0 is the no-effect control and ±100 the full control effect; potency means the concentration at half of the fitted maximal effect.

Experiment: Nrf2 qHTS screen for inhibitors; further: nearly all actives have a fitted effect of over 60% in size
Settings: A549 ARE-Fluc reporter, luciferase luminescence, 18-24 h; activity change, negative = inhibition: at 46 µM (top of the series)
How it was run: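 A549 ARE_Fluc cells, 5000/well, 5% FBS OPTI-MEM; compounds in dose-response, 18-24 h at 37 °C/5% CO2; CellTiter-Fluor viability read (Ex 405/Em 525), then BugLite luciferase luminescence = Nrf2 activity.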
For `C=CCNC(=S)Nc1ccc(Br)cc1F`, the Potency was active: 23.1 µM.
In the case of `Cc1ccc2c(=O)cc(C(=O)NCCc3ccc(S(N)(=O)=O)cc3)oc2c1`, the Potency is reported as “inactive”.
In the case of `O=C(CSc1nc2ccccc2[nH]1)c1ccco1`, the Potency is reported as inconclusive: 8.2 µM [activator, partial curve, poor fit].
In the case of `CCOc1ccccc1NC(=O)C1CCCN(S(=O)(=O)c2ccc3c(c2)C(C)(C)C(=O)N3C)C1` (stereo not given), the Potency is reported as inconclusive: 32.6 µM [falling, single point].
In the case of `Cc1ccc(C(=O)CNc2ccccc2)cc1`, the Potency is reported as inconclusive: 20.6 µM [activator, single point].
In the case of `O=C(C=CC(=O)OC1CCCCC1)OC1CCCCC1`, the Potency is reported as inconclusive: 29.1 µM [falling, single point].
For `COc1ccccc1N1CCN(S(=O)(=O)c2cn(C)c(=O)n(C)c2=O)CC1`, the Potency was inconclusive: 29.1 µM [falling, partial curve, poor fit].
In the case of `CCCCCOc1ccc(C(=O)N(Cc2ccco2)C2CCS(=O)(=O)C2)cc1` (stereo not given), the Potency is reported as inconclusive: 18.4 µM [falling, single point].
For `O=C(O)CCc1nc2ccccc2n(CCc2ccccc2)c1=O`, the Potency was “inactive”.
With `COc1ccccc1C(=O)Nc1nc2cc3c(cc2s1)OCCO3` the Potency was “inactive”.
In the case of `O=C(NCC(c1cccnc1)N1CCN(c2ccc(F)cc2)CC1)c1ccco1` (stereo not given), the Potency is reported as inconclusive: 29.1 µM [falling, single point].
With `COc1ccccc1C(c1nnnn1CCc1ccccc1)N1CCN(c2ccccc2)CC1` (stereo not given) the Potency was inconclusive: 29.1 µM [falling, single point].
In the case of `c1ccc2c(c1)oc1c(NCc3ccc4c(c3)OCO4)ncnc12`, the Potency is reported as inconclusive: 29.1 µM [falling, single point].
In the case of `O=C(Nc1ccccc1N1CCCCC1)c1ccc(Cl)c([N+](=O)[O-])c1`, the Potency is reported as inconclusive: 29.1 µM [falling, single point].
For `COc1ccccc1/C=C1\SC(=O)N(CCC(=O)N2CCCCC2CCO)C1=O` (stereo not given), the Potency was “inactive”.
With `CC(C)(C)c1ccc(NC(=O)Nc2ccc(OCC(=O)N3CCOCC3)cc2)cc1` the Potency was inconclusive: 3.66 µM [activator, full curve, poor fit].
For `CN(C(=O)COC(=O)c1ccc2c(c1)OCO2)C1CCCCC1`, the Potency was “inactive”.
In the case of `CN(C)S(=O)(=O)Oc1ccsc1C(=O)Nc1ccccc1Cl`, the Potency is reported as inconclusive: 23.1 µM [falling, single point].
In the case of `CC(Cc1ccccc1)C(=O)NCc1nc2ccccc2s1` (stereo not given), the Potency is reported as inconclusive: 25.9 µM [activator, single point].
With `COc1ccc(NC(=O)c2cc3ccccc3o2)cc1OC` the Potency was inconclusive: 25.9 µM [activator, partial curve, poor fit].
For `COc1ccccc1N(CC(=O)Nc1ccc(C)cc1Cl)S(=O)(=O)c1cccs1`, the Potency was inconclusive: 18.4 µM [falling, single point].
In the case of `COc1ccc(NC(=O)CN(C)C(=O)c2cccc(S(=O)(=O)N3CCN(c4ccccc4)CC3)c2)cc1`, the Potency is reported as active: 16.4 µM.
With `COc1ccc(C(=O)c2cn(Cc3ccc(C)cc3)c3cc4c(cc3c2=O)OCO4)cc1` the Potency was “inactive”.
For `COc1ccc2nc(N3CCCC(O)C3)c(C#N)cc2c1` (stereo not given), the Potency was inconclusive: 7.31 µM [activator, partial curve].
In the case of `COC(=O)[C@@]12CCCCN1[C@H](c1ccc(-c3cccc(Cl)c3)c(OC)c1)[C@@H]1C(=O)N(C)C(=O)[C@@H]12`, the Potency is reported as inconclusive: 29.1 µM [falling, single point].
For `O=C(CCOc1ccccc1)Nc1ccc([N+](=O)[O-])cc1`, the Potency was inconclusive: 8.2 µM [activator, partial curve].
With `O=C(CSc1cn(CC(=O)N2CCCCC2)c2ccccc12)Nc1ccccc1F` the Potency was inconclusive: 18.4 µM [falling, single point].
In the case of `COc1ccccc1-c1noc(CSc2nc3ccc(C)cc3[nH]2)n1`, the Potency is reported as inconclusive: 29.1 µM [falling, single point].
For `CC(OC(=O)Cc1n[nH]c(=O)c2ccccc12)C(=O)Nc1cccc([N+](=O)[O-])c1` (stereo not given), the Potency was inconclusive: 32.6 µM [falling, single point].
In the case of `CC(=O)c1ccc(OCCCC(=O)N2CCN(S(=O)(=O)c3ccc(C)cc3C)CC2)cc1`, the Potency is reported as inconclusive: 18.4 µM [falling, single point].
For `CCOc1ccc(NC(=O)C(C)Oc2ccccc2C(=O)Nc2cccc(Cl)c2Cl)cc1` (stereo not given), the Potency was inconclusive: 29.1 µM [falling, single point].
For `COc1ccc(NC(=O)c2cc(S(=O)(=O)N3CCCC3)cn2C)cc1Cl`, the Potency was active: 3.66 µM.
For `O=C(CSc1nc(-c2ccc(F)cc2)[nH]c1-c1ccccc1)NCC1CCCO1` (stereo not given), the Potency was “inactive”.
In the case of `O=C(O)c1ccc(N/N=C/c2ccc(-c3ccccc3Cl)o2)cc1`, the Potency is reported as inconclusive: 0.326 µM [activator, full curve, poor fit].
With `Cc1cccc2cc(CN(C(=S)NCC(C)C)C3CCCC3)c(=O)[nH]c12` the Potency was “inactive”.
With `COc1ccc(NC(=O)Nc2ccc(F)c(F)c2)c(OC)c1` the Potency was “inactive”.
With `COc1ccccc1N1CCN(c2ncccc2-c2nc(-c3ccc(Cl)cc3)no2)CC1` the Potency was inconclusive: 29.1 µM [falling, single point].
For `CCc1ccc(OCC(=O)N(CC)CC)cc1`, the Potency was inconclusive: 18.4 µM [activator, single point].
With `CC(C)COC(=O)NCCOC(=O)Nc1cccc(Cl)c1` the Potency was inconclusive: 23.1 µM [falling, partial curve, poor fit].
For `CCN(CC)c1cc(C)c2cc(NC(=O)c3ccccc3OC)ccc2n1`, the Potency was inconclusive: 4.11 µM [falling, partial curve].
For `N#C/C(=C\c1ccc([N+](=O)[O-])cc1)c1ccccn1`, the Potency was inconclusive: 1.3 µM [activator, full curve, poor fit].
For `CC1CC1C(=O)OCC(=O)Nc1cccc([N+](=O)[O-])c1` (stereo not given), the Potency was inconclusive: 23.1 µM [activator, single point].
For `CN(C)CCCN(Cc1ccccc1)C(=S)Nc1ccc(F)c(Cl)c1`, the Potency was inconclusive: 9.2 µM [falling, partial curve].
For `CSc1ccccc1NC(=O)c1cc(-c2cccnc2)nc2ccc(Br)cc12`, the Potency was inconclusive: 25.9 µM [falling, single point].
For `O=C(CNC(=O)C12CC3CC(CC(C3)C1)C2)N1CCN(S(=O)(=O)/C=C/c2ccccc2)CC1`, the Potency was inconclusive: 25.9 µM [falling, single point].
In the case of `CCCCn1c(SCC(=O)NCCCOC)nc2c(sc3ccccc32)c1=O`, the Potency is reported as inconclusive: 29.1 µM [falling, single point].
In the case of `Cc1cc(C)c(OCCNC(=O)c2ccccc2Sc2ccccc2C#N)c(C)c1`, the Potency is reported as inconclusive: 16.4 µM [falling, single point].
In the case of `Cc1nc2ccccn2c1-c1ccnn1S(=O)(=O)c1ccc(F)cc1`, the Potency is reported as inconclusive: 32.6 µM [falling, single point].
With `CCCOc1ccc(C(=O)NC(=S)Nc2nc3ccccc3s2)cc1` the Potency was inconclusive: 10.3 µM [activator, partial curve, poor fit].
In the case of `Cc1ccc(S(=O)(=O)/N=C(/Nc2ccc3[nH]c(=O)[nH]c3c2)c2ccc(F)cc2)cc1`, the Potency is reported as “inactive”.
With `COC(=O)C1=C(C(=O)OC)[C@@H]2Nc3ccccc3[C@@]23C[C@@H](C(=O)OC)N(C(=O)c2ccc(Br)cc2)C3=N1` the Potency was inconclusive: 16.4 µM [falling, single point].
With `Cc1cccc(N2CCN(C(=O)c3cc4c(=O)oc5ccccc5c4s3)CC2)c1C` the activity change, negative = inhibition was inactive: 0.469% [at 9.27 µM].
In the case of `O=C(NC1CCCCC1)N(Cc1cc2cc3c(cc2[nH]c1=O)OCCO3)CC1CCCO1` (stereo not given), the Potency is reported as inconclusive: 25.9 µM [falling, partial curve, poor fit].
In the case of `CCOC(=O)C1=CC[C@@H](c2ccco2)N(S(=O)(=O)c2ccc(C)cc2)[C@H]1C(=O)OCC`, the Potency is reported as inconclusive: 32.6 µM [activator, single point].
For `CC(=O)Oc1cccc(NC(=O)c2ccc3c(c2)C(=O)N(CC(C)C)C3=O)c1`, the Potency was inconclusive: 23.1 µM [activator, single point].
In the case of `CCCNC(=O)N1CCC(C(=O)c2ccc(Cl)cc2)CC1`, the Potency is reported as inconclusive: 2.91 µM [falling, full curve].
For `O=C(CSc1ccc(-c2ccc(Cl)cc2)nn1)N1CCCc2ccccc21`, the Potency was inconclusive: 29.1 µM [falling, single point].
For `CCOC(=O)N1CCN(C(=O)CN(c2ccccc2)S(C)(=O)=O)CC1`, the Potency was “inactive”.
In the case of `O=C(Nc1ccc(OCc2ccccc2)cc1)c1cccs1`, the Potency is reported as inconclusive: 5.8 µM [activator, full curve].
In the case of `Cc1cc(C(=O)CNCc2ccco2)c(C)n1-c1ccc(F)cc1`, the Potency is reported as inconclusive: 3.26 µM [activator, full curve, poor fit].
With `COC(=O)[C@]1(Cc2ccccc2)N[C@H](CN(C)C(=O)C2CCCCC2)[C@@H]2C(=O)N(Cc3ccccc3)C(=O)[C@@H]21` the Potency was inconclusive: 29.1 µM [falling, single point].
For `O=c1[nH]c2ccccc2nc1/C=C/c1ccc(Cl)cc1`, the Potency was inconclusive: 3.66 µM [activator, full curve].
In the case of `CC(C)(C)c1cc(C2=CSC3=NCCN23)cc(C(C)(C)C)c1O`, the Potency is reported as inconclusive: 0.731 µM [falling, full curve, poor fit].
With `O=C(CNC(=O)N1CC(=O)Nc2ccccc21)Nc1ccccc1F` the Potency was “inactive”.
With `O=C(CNc1cccc(S(=O)(=O)N2CCCC2)c1)Nc1ccc(C(F)(F)F)cc1` the Potency was active: 23.1 µM.
